Primary screen of a compound library

By UniProt entry, the sequences of proteins in these tests, tags left out. Residues count along the entry.
UniProt P9WNZ1, whole entry: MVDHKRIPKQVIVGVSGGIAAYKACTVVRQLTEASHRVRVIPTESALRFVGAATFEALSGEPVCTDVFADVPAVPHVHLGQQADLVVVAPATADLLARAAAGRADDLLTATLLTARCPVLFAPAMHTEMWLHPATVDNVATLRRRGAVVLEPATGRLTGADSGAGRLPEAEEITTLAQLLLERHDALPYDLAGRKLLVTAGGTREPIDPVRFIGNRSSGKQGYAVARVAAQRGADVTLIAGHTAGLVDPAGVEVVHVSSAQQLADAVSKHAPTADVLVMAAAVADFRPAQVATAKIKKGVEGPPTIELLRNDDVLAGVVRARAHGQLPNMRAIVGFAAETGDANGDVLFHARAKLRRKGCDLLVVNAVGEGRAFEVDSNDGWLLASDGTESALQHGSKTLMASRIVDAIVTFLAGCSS
UniProt I6X8D2, whole entry: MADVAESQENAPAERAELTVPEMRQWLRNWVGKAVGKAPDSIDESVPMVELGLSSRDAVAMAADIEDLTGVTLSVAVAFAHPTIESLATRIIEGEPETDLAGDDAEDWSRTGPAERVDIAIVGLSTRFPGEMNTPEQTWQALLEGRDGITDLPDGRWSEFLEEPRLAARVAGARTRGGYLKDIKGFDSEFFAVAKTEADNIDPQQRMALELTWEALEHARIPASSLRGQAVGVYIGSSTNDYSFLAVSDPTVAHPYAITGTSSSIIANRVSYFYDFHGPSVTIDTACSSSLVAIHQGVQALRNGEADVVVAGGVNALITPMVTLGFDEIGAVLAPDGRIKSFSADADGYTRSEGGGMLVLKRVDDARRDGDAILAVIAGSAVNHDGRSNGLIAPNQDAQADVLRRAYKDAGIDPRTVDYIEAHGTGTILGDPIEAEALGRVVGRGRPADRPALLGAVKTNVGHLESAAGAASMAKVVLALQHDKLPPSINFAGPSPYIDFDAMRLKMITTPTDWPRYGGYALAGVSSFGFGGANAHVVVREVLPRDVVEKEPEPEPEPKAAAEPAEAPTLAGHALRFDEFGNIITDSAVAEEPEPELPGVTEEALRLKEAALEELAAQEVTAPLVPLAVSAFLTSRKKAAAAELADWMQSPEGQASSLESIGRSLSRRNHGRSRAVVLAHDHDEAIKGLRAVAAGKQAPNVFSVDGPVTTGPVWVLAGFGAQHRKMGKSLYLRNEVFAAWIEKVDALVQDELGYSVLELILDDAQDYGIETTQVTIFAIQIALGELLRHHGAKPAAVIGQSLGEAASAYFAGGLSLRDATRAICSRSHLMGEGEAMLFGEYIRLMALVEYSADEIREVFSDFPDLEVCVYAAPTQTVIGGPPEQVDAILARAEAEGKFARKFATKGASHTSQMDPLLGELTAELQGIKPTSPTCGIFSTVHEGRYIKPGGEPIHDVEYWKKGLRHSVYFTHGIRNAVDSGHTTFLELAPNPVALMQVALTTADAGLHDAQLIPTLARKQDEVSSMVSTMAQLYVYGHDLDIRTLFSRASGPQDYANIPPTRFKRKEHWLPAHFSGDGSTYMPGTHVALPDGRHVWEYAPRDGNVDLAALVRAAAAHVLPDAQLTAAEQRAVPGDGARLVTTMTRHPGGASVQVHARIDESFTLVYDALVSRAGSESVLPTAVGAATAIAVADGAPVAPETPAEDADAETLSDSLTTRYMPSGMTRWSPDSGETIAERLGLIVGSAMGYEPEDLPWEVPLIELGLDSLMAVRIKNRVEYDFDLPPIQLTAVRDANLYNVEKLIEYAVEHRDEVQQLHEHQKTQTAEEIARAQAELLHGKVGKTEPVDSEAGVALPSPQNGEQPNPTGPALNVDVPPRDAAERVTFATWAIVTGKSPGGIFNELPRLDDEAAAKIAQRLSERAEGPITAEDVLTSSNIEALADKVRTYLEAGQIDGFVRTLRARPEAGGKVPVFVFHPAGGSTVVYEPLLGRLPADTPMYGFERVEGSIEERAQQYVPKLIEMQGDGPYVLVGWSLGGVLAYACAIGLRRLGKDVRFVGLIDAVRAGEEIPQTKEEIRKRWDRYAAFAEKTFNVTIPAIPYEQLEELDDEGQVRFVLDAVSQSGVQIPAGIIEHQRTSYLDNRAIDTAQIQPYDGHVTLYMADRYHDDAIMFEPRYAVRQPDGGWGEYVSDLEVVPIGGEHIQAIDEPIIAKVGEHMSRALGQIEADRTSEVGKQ
UniProt P9WPC5, whole entry: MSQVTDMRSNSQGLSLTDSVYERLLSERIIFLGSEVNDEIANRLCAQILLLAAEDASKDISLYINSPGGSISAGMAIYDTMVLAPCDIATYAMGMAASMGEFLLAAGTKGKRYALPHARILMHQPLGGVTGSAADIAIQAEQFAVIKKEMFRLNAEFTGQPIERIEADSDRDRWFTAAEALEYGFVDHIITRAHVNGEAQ
UniProt P9WPC3, whole entry partner: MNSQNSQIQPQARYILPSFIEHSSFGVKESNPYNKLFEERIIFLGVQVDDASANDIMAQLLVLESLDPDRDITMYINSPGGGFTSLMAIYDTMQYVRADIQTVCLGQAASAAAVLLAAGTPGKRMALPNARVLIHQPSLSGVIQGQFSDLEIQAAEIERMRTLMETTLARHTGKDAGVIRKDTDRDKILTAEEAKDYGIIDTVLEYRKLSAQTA
UniProt Q4DA54, 1-478: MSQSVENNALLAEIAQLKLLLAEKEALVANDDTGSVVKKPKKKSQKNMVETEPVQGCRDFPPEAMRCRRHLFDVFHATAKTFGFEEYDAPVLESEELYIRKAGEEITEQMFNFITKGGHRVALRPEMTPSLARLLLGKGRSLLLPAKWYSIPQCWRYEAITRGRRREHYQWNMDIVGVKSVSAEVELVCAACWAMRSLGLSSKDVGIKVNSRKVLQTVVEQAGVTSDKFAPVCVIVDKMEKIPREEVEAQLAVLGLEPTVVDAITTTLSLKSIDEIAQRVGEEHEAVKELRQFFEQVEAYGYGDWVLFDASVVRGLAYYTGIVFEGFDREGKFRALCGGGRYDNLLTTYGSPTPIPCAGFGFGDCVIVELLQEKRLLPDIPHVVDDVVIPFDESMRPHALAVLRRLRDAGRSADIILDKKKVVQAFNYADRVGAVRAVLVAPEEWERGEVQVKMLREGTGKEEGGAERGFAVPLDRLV

Data taken from ChEMBL document CHEMBL3988442, “University of Dundee, Small-Polar-MMV Screening Library” (2021).

CoaBC: 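Coenzyme A biosynthesis protein CoaBC, Mycobacterium tuberculosis (UniProt P9WNZ1). Enzyme assay of CoaBC with a phosphate dye (Biomol Green) read at 650 nm. Concentration: 30 µM. Direction is inferred from only a few compounds that gave an IC50; most scored high, so higher reads as stronger inhibition. Most strong results did not repeat in a second test. Size under these conditions: about 67,000 compounds, about 40 of them at 50% or above in at least one test.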
Leishmania in macrophages: 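Cell assay of Leishmania donovani living inside macrophages; the read-out is not stated. Tested at 30 µM. Direction is inferred from retests: higher values go with stronger inhibition. Of about 69,000 compounds tested this way, about 1,000 (1.5%) reached 50% or more in at least one test.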
Pks13 thioesterase: 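Enzyme assay of the thioesterase domain of polyketide synthase 13; the read-out is not stated. Target: Polyketide synthase Pks13, Mycobacterium tuberculosis (UniProt I6X8D2). Compounds at 30 µM. The record gives no direction; the compounds picked for IC50 retests had high values, so higher reads as stronger inhibition. About 67,000 compounds were tested under these conditions; 0.46% (about 300) showed 50% or more at least once.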
ClpP1P2: 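ClpP1P2, Mycobacterium tuberculosis (UniProt P9WPC5 and UniProt P9WPC3). Protease assay of ClpP1P2, read by the AMC dye that it sets free. Concentration: 50 µM. Higher reads as stronger inhibition, judged from the few compounds that gave an IC50. Most other retested compounds had strongly negative values. Of about 69,000 compounds tested this way, about 10 (0.015%) reached 50% or more in at least one test.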
TcHisRS: 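Histidine-tRNA ligase, Trypanosoma cruzi CL Brener (UniProt Q4DA54). Enzyme assay of histidyl-tRNA synthetase; the read-out is not stated. Compounds at 30 µM. Direction is inferred from retests: higher values go with stronger inhibition. Of about 69,000 compounds tested this way, about 31 (0.045%) reached 50% or more in at least one test.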

Values are the deposited “Percent Effect”, in %. How 0% and 100% were set is not recorded. Most values in the screen are low, and negative values occur. This is an unselected part of the compounds tested. Two or more numbers in one place are separate tests of the same structure; such repeats can differ widely. A dash means the value is not listed here; it may have been measured.

compound	CoaBC	Leishmania in macrophages	Pks13 thioesterase	ClpP1P2	TcHisRS
CC(NC(=O)c1ccc2c(c1)COC2)c1cccc(N2CCOC2=O)c1 (centres unmarked)	2.92	9.73	-11.32	-10.95	4.242
O=C(O)C(F)(F)F.[H][C@@]12CCN(CC(=O)N(C)C)C(=O)[C@@]1([H])CN(c1ncc(C)cn1)C2	-	4.139	-	-	-
[H][C@@]12CC[C@@]([H])(C1)[C@H](Nc1nc(-c3ccncc3)nc3c1cnn3C)C2	-	-15.42	-	-	-
CN1C[C@H](NC(=O)c2cscn2)[C@@H]2OCCC[C@@H]21	-0.2469	-	-	5.211	8.466
CCOc1ccc(CN2C(=O)CC(C)(C(C)C)C2=O)nc1 (centres unmarked)	-2.784	-27.16	-18.94	0.4513	4.712
CCNC(=O)C1CCCN(Cn2nc(C(C)(C)C)ccc2=O)C1 (centres unmarked)	12.75	-33.92	-18.77	-14.94	0
CSc1ccc(C(=O)N2CC(=O)N(CC3CC3)CC(O)C2)cc1 (centres unmarked)	2.421	-11.91	4.383	-8.561	5.618
Cc1ccccc1NC1CCN(C(=O)CCc2ccco2)CC1	-2.193	13.78	3.356	-2.754	5.814
CCN(CCc1nccs1)C(=O)c1sccc1C	-2.484	31.94	6.961	-9.247	-2.564
COCc1nc(CNc2cc(C)on2)cs1	7.393	2.023	-6.385	0.0533	5
CCNC(=O)Cc1c(C)nc2c(c1C)c(=O)[nH]n2C	1.827	-23.18	-14.83	2.181	7.738
c1ccc(NCc2cccc(OCCN3CCOCC3)c2)nc1	3.265	37.51	-35.96	11.65	3.247
O=C(c1ccc(O)cc1)N1CCN(C(=O)c2ccc3c(c2)COC3)CC1	-4.627	9.275	-25.27	1.406	7.519
O=C(COCc1nc(-c2ccncc2)no1)N1CCCC1	5.909	18.4	30.64	-8.568	0.8368
Cc1ccc(C)c(OCCC(=O)N2CCCN(CC(N)=O)CC2)c1	0.7874	23.43	0.07406	-11.42	3.429
CCC(C)(CC(=O)OC)NC(=O)c1ccc(C(C)=O)cc1 (centres unmarked)	5.488	3.148	-5.88	-5.112	11.45
CCN1CC(Oc2ccc(Cl)cc2)=NC(SCC(=O)c2ccccc2)=N1	-35.85	7.931	7.873	7.144	15.34
CCN(CC)S(=O)(=O)N1CCCC1c1cccc(Nc2ncc(C)s2)n1 (centres unmarked)	3.585	6.083	-30.57	3.729	7.605
Cc1noc(C)c1CN1Cc2cn(C)nc2C(COCC2CC2)C1 (centres unmarked)	-1.777	-	-4.29	9.46	4.926
O[C@H]1CCN(Cc2ccoc2)[C@H]1Cc1cccnc1	-3.934	-	-8.936	-2.505	4.865
CCN(CC)C1COc2c(cc(Br)c(C)c2Br)C1=O (centres unmarked)	3.067	16.43	36.27	0.1616	-20.81
O=C1CC(N2CCN(c3ccccc3O)CC2)C(=O)N1Cc1cccs1 (centres unmarked)	2.013	20.07	-2.446	0.8798	8.247
Cc1c(C2SCC(=O)Nc3c2cnn3C(C)(C)C)cnn1C (centres unmarked)	-0.4819	-0.2418	-6.953	-7.95	0.9901
O=C(O)C(F)(F)F.[H][C@@]12CN(Cc3cccs3)C[C@H](C(=O)NCCOC)[C@]1([H])CCO2	-	-23.24	-	-	-
CCC1(CC)CC(=O)N(CC(O)c2ccc(F)cc2)C1=O (centres unmarked)	-2.217	13.6	-4.122	-1.779	2.609
CN(C)C(=O)CC1CC2(CCN(C(=O)N(C)C)CC2)Oc2ccccc21 (centres unmarked)	-0.8811	2.313	-5.549	-21.29	-13.56
COc1ccc(CNC(Cc2cccs2)c2nc(C)c(C)s2)cc1OC.Cl (centres unmarked)	-	10.3 and 2.765	-	-	-
OC(CN1CCN(Cc2ccc(F)c(F)c2)CC1)C1CC1 (centres unmarked)	-28.36	-	-14.44	-2.116	2.479
Cc1cnc(C(=O)N2CCOCC2c2ccccc2)cn1 (centres unmarked)	1.456	-6.753	3.571	-1.771	4.95
CC1CCN(c2ccc(=O)n(CC(=O)NCCc3ccccc3)n2)CC1	13.8	3.557	5.962	-6.369	5.699
NC(=O)NCC(=O)N1CCCC(c2nccn2Cc2ccncc2)C1 (centres unmarked)	0.8485	2.072	-16.37	-18.27	4.082
[H][C@@]12CCN(Cc3c(C)noc3C)C[C@@]1([H])O[C@H](c1ccnc(C)n1)C2	-	33.62	-	-	-
CCCN1CCCCCC1Cc1c(C(=O)NC)sc2ccccc12 (centres unmarked)	-3.679	36.99	-32.14	24.03	9.091
CC[C@H](Nc1nc(C(C)C)nc2c1cnn2C)c1ccccc1	-2.616	9.71	-20.62	-2.321	8.427
COCC1CN(C(=O)c2ccnnc2)Cc2ncnn2C1 (centres unmarked)	-0.8157	10.22	-38.26	-4.659	7.921
CCn1nccc1C(=O)NC(Cn1cccn1)C(C)(C)C (centres unmarked)	-0.6135	14.66	9.729	12.62	6.936
CC(C1CCN(Cc2cccc(OC(F)F)c2)CC1)N1CCOCC1 (centres unmarked)	-1.085	37.87	-19.58	1.071	4.255
CCc1c(C)nc2n(c1=O)CC(C(=O)Nc1ccccc1C)CS2 (centres unmarked)	-4.084	-11.68	-2.317	-8.379	5
[H][C@@]12COC[C@]1(COCc1cccnc1)CN(C(=O)CCOC)C2	-	13.32	-	-	-
CCc1nc(NS(=O)(=O)c2cc(C)c(F)cc2Cl)no1	-0.8739	-56.45	-4.276	-12.14	6.122
CCCN1CCCC2(CCN(c3nc(C)nc4ccsc34)C2)C1=O (centres unmarked)	-	20.5	0.854	-3.858	2.632
Cc1c(C)c(C)c2[nH]c(-c3cn(C4CCNCC4)nn3)nc2c1C	-41.19	88.31	-25.4	15.58	0.5525
Cc1cccc(CNC(=O)CNc2cc(CO)ccc2Cl)c1	2.564	-1.322	-28.93	-1.937	6.522
Cc1nc(NC(=O)OC(C)(C)C)sc1C#N	3.629	14.13	-0.3137	-6.438	12.61
NC(=O)c1cn(CC2CC2)c(C2CC2)n1	5.729	-12.19	-12.77	-3.715	8.808
COc1cccn(Cc2nnc(-c3cccc(F)c3)o2)c1=O	0.5115	21.85	-4.567	-11.99	2.02
CCc1n[nH]c(C2CN(C(=O)c3ccc4c(c3)CCCC4)CCO2)n1 (centres unmarked)	6.789	5.491	-9.96	-21.9	3.207
NCC(=O)N1CCCC1c1nccnc1Nc1ncccn1 (centres unmarked)	5.583	-	42.26	-4.016	13.19
C=C/C=c1\c(=C/C)oc2c(NCc3ccccc3)nc(CC)nc12	0.4819	28.47	8.04	18.57	17.82
Cc1cccc(-n2ncc3c(=O)n(CCN4CCCCC4)cnc32)c1C	4.962	5.556	-10.46	13.43	12.98
Cc1ccc2c(n1)N(CCn1cccn1)CCN(CC1CC1)C2	2.469	-	-16.11	-19.02	4.673
CC(Cn1cncn1)NC(=O)Nc1ccc(F)cc1OCC1CC1 (centres unmarked)	2.2	24.28	-7.358	-2.839	2.062
CCN(CC)C(=O)COc1nc(C(C)C)no1	-3.027	-3.647	-13.44	-10.73	1.98
Cc1noc(Cl)c1CCC(=O)N1CCc2sccc2C1	3.259	26.31	-3.944	-2.767	2.642
COCc1noc(C2(c3ccc(F)cc3)CC2)n1	0.641	8.86	24.73	0.5715	1.97
CCCn1cnnc1CN(C)C(=O)C1CCCN(C2CCN(C)CC2)C1 (centres unmarked)	3.802	-24.09	0.1087	-3.786	10
CCOc1ccc(N(C)Cc2nnc(C3CC3)o2)cc1	-1.033	-11.77	0.3376	-7.667	7.937

Some entries from above, unchanged:

With CCN(CC)C1COc2c(cc(Br)c(C)c2Br)C1=O (centres unmarked) the screen gave CoaBC: 3.067%; Leishmania in macrophages: 16.43%; Pks13 thioesterase: 36.27%; ClpP1P2: 0.1616%; TcHisRS: -20.81%.
With O=C(O)C(F)(F)F.[H][C@@]12CN(Cc3cccs3)C[C@H](C(=O)NCCOC)[C@]1([H])CCO2 the screen gave Leishmania in macrophages: -23.24%.
With CCc1n[nH]c(C2CN(C(=O)c3ccc4c(c3)CCCC4)CCO2)n1 (centres unmarked) the screen gave CoaBC: 6.789%; Leishmania in macrophages: 5.491%; Pks13 thioesterase: -9.96%; ClpP1P2: -21.9%; TcHisRS: 3.207%.
With Cc1nc(NC(=O)OC(C)(C)C)sc1C#N the screen gave CoaBC: 3.629%; Leishmania in macrophages: 14.13%; Pks13 thioesterase: -0.3137%; ClpP1P2: -6.438%; TcHisRS: 12.61%.
With [H][C@@]12COC[C@]1(COCc1cccnc1)CN(C(=O)CCOC)C2 the screen gave Leishmania in macrophages: 13.32%.
With COc1ccc(CNC(Cc2cccs2)c2nc(C)c(C)s2)cc1OC.Cl (centres unmarked) the screen gave Leishmania in macrophages: 10.3% and 2.765%.